In publication PMC3307762:
Changes are numbered by the printed parent chain. Results are given in words; binding and its absence hold for the method and conditions named. Binding seen in cells or lysates may run through a third protein. Some results given as binding are weak or reduced against the parent protein; the word gives no strength. Sequences can lack the tags named with a protein.

The chains behind the UniProt entries cited, without tags or fusion partners.
UniProt Q14974: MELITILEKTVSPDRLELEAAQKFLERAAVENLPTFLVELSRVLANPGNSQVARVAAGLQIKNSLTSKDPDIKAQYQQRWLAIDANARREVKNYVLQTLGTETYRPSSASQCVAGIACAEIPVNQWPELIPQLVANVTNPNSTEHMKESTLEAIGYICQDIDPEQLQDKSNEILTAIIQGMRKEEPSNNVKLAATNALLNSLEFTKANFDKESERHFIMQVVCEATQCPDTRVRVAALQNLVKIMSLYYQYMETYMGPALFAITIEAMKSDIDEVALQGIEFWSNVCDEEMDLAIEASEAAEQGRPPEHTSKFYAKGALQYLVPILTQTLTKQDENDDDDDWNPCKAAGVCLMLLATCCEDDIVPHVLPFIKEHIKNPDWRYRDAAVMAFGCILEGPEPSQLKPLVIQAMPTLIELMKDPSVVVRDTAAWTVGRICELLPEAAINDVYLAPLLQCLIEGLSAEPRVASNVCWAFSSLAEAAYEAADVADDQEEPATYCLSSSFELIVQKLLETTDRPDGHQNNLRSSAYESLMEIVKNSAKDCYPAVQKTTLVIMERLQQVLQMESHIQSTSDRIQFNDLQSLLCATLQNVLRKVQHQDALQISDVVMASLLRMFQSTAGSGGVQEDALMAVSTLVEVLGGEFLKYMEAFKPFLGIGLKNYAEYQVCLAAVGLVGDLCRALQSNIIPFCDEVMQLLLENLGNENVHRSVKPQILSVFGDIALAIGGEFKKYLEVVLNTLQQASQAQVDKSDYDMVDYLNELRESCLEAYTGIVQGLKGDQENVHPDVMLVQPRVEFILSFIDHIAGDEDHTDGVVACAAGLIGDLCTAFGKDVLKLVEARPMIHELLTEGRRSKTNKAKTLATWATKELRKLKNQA
UniProt Q92973: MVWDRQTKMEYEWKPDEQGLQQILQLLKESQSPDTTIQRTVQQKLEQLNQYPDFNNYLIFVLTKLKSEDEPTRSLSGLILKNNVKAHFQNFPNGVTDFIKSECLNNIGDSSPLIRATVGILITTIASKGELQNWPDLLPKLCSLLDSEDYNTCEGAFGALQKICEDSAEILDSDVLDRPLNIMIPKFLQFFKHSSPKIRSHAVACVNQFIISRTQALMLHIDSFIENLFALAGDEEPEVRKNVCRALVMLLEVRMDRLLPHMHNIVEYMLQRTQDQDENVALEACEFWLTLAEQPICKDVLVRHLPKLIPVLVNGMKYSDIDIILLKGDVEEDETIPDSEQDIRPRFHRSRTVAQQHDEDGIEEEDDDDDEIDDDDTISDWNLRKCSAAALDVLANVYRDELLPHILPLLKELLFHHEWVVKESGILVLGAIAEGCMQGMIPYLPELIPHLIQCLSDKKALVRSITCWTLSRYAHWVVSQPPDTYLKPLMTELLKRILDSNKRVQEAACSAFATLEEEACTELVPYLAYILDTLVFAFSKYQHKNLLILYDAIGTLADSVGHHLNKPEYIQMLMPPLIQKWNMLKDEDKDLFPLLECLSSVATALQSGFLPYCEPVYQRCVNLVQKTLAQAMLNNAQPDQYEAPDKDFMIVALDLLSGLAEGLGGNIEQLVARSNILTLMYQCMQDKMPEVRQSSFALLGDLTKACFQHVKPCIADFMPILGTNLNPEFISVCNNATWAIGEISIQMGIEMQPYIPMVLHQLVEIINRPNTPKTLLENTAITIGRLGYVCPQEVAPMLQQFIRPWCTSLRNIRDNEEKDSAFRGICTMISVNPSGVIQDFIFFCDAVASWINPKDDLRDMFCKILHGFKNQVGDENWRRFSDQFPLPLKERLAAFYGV

What was measured:
Assay in all cases: co-IP; anti-HA i.p. of HA-necdin (wild type or mutants) from transfected HEK293 cells, 1 mg total lysate, Western blot for transportin 1 or importin β1; control i.p. with an irrelevant antibody
[1] = target: T1, HA-necdin (in HEK293 cells) (mouse) (UniProt P25233)
T1 sequence: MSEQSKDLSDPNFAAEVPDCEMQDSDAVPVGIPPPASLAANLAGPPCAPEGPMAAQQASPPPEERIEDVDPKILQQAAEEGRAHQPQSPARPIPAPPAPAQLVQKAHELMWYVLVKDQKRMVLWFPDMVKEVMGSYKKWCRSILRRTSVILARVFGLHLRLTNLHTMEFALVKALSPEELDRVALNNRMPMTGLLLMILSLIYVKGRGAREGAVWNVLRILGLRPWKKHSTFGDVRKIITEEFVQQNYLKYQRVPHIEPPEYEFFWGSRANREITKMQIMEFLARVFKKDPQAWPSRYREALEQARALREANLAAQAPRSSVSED

HA-necdin D234P (mouse) = target: T2, HA-necdin D234P (mouse) (UniProt P25233)
T2 sequence: T1 sequence with D234P

HA-necdin G233A (mouse) = target: T3, HA-necdin G233A (mouse) (UniProt P25233)
T3 sequence: T1 sequence with G233A

importin β1 (in HEK293 cells) (from UniProt Q14974 1-876)
binding [1]: binds
binding (HA-necdin D234P (mouse)): binds

transportin 1 (in HEK293 cells) (from UniProt Q92973 1-898)
binding [1]: binds
binding (HA-necdin D234P (mouse)): binds
binding (HA-necdin G233A (mouse)): binds
